Test system: Motorik des Magen-Darmtrakts und der ableitenden Harnwege
Assay: Stimulation of the motility of the gastrointestinal tract and the efferent urinary tract
Design: species or system Hund
Settings: in vivo
Method: Die erfindungsgemässen Peptide stimulieren die Motorik des Magen-Darmtrakts und der ableitenden Harnwege beim Hund und beim Menschen. Sie steigern den Ruhetonus und die segmentale Kontraktionsaktivität des Darmes und fördern dadurch sekundär auch die Wasserresorption aus dem Darmlumen (lleum).
Die erfindungsgemässen Peptide wirken intravenös bereits in einer Dosierung von 10 ng/kg und können unbedenklich auch in höherer Dosierung angewandt werden. Auch Morphin übt unter geeigneten Bedingungen eine ähnliche Wirkung aus, jedoch erst in einer etwa 50 fach höheren Dosierung. Das parasympathomimetisch wirkende Carbaminoylcholin benötigt für die gleiche Wirkung etwa eine 10 fache Dosierung. So zählen die erfindungsgemässen Peptide zu den stärksten Effektoren der Motorik des Magen-Darmtrakts und der ableitenden Harnwege. Ihre morphinähnliche Wirkung ist zwar bekannt, doch überschreiten bei der geringen erforderlichen Dosierung weder nach intravenöser, subcutaner noch intranasaler Anwendung die wirksamen Dosen die Blut-Hirn-Schranke. Sie üben deshalb in der für den erfindungsgemässen Zweck erforderlichen Menge keine Wirkungen im Zentralnervensystem aus.

`CN1CC[C@]23c4c5ccc(O)c4O[C@H]2[C@@H](O)C=C[C@H]3[C@H]1C5` [Morphin] was tested, and the “höhere Dosierung für ähnliche / gleiche Wirkung” value was ~50 fach.
